According to paper PMC11352945, “Anticancer Activity of Benzo[a]phenoxazine Compounds Promoting Lysosomal Dysfunction” (Cells, 2024):

How the values were obtained:
[1] = tested on: RKO cell lysosomes; experiment: Fluorescence co-staining with LysoSensor Green and DAPI, RKO; format: cell-based, human; settings: IC50 concentration, 3 h, LysoSensor Green 2 μM
[2] = tested on: MCF7 cell lysosomes; experiment: Fluorescence co-staining with LysoSensor Green and DAPI, MCF7; format: cell-based, human; settings: MCF7, IC50 concentration, 3 h, LysoSensor Green 2 μM

SMILES	Intracellular localization of compound far-red fluorescence [1]	Intracellular localization of compound far-red fluorescence [2]
CCCNc1cc2oc3cc(=[N+](CCC)CCC)ccc-3nc2c2ccccc12 [A36]	co-localized with the LysoSensor Green lysosome staining	co-localized with the LysoSensor Green lysosome staining
ClCCCN=c1cc2oc3c4c5c(cc3nc-2c2ccccc12)CCCN5CCC4 [A42]	co-localized with the LysoSensor Green lysosome staining	co-localized with the LysoSensor Green lysosome staining
CCCNc1cc2oc3cc(=NCC)c(C)cc-3nc2c2ccccc12 [C9]	co-localized with the LysoSensor Green lysosome staining	co-localized with the LysoSensor Green lysosome staining

Some compounds share one wording; it may come from a single statement.
